The structures appear in SMILES notation. Several values for one entry are separate records, joined by “and”; a condition that tells them apart may be missing. Identical values can stand only once. The list shows a part of the results. Shown are side measurements of this screen, not its main read-out; they come without a call. Compounds called inactive in the main read-out are mostly missing here. Potencies come from curve fits of mixed quality, noted in brackets.

The experiment is described as follows: qHTS Assay for Lipid Storage Modulators in Drosophila S3 Cells.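 On cell number change: cells counted by Cell Tracker Red CMTPX staining in the red channel.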 The settings on record: BODIPY lipid droplet fluorescence, 18-24 h; for cell number change: measured here: cell count max response, cells fed with added oleic acid. A digest of the protocol: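 Drosophila S3 cells loaded with oleic acid (400 uM, as added) and compounds at several concentrations; lipid droplets imaged by 488-nm laser-scanning cytometry, 500–530 nm intensity and object ratio to cell channel. Percent activity normalized to 20 uM Triacsin C.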
On the technique in general: Quantitative high-throughput screening tests each substance at several concentrations.

[1] abbreviates: measured here: lipid fluorescence (Fed channel) AC50, cells fed with added oleic acid.
The mark [2] stands for this setting: measured here: cell number channel AC50, cells fed with added oleic acid.

The term AC50 denotes the midpoint of the concentration-response curve, whichever way the signal moves. Take `CC(=O)NC1(C(F)(F)F)N=C(c2ccccc2)NC1=O` (stereo not given): the cell number change is -14.7%. Besides, under setting [1], the concentration at half-maximal activity (AC50) was 3.26 µM [falling, single point].

As for `CC(C)(O)P(C)(=O)c1ccccc1` (stereo not given), the cell number change was -36.2%. Moreover, the half-maximal activity concentration (AC50) under setting [2] was 32.6 µM [falling, single point].

`CN1C(=O)CSc2ccc(C(=O)O)cc21`: the AC50 under setting [1] is 0.231 µM [falling, full curve].

Take `COCCNC(=O)CN(C(=O)c1ccc(N2CCCC2)nc1)c1ccc(Cl)cc1`: the cell number change was found to be 2.65%.

As for `O=C(CCC1CCN(C(=O)c2ccccc2Cl)CC1)NCc1ccc(F)cc1`, the cell number change was -1.98%. Also, the concentration at half-maximal activity (AC50) under setting [1] was 29.1 µM [falling, single point].

On to `Clc1ccc(-c2nn3c(-c4cccc(Cl)c4)nnc3s2)cc1`, for which the cell number change came out at 4.68%.

On to `CCOc1ccc(CNC(=O)CCCc2cn(C)c3ccccc23)cc1OC`, for which the AC50 under setting [1] is 8.2 µM [falling, partial curve, poor fit].

`COC(=O)[C@H](Cc1ccccc1)NC(=O)c1cc(COc2c(F)cccc2F)on1`: the cell number change was determined as 23.3%.

`CCOc1ccc(N2CC(C(=O)NC3=NCCS3)CC2=O)cc1` (stereo not given): the cell number change is -16.2%. Also, the AC50 under setting [1] was 4.11 µM [falling, full curve].

Turning to `CC(C)(C)NC(=O)C(c1ccncc1)N(Cc1cccs1)C(=O)Cn1nnc(-c2cccs2)n1` (stereo not given), the cell number change is -2.66%. Moreover, the AC50 under setting [1] was 2.91 µM [rising, single point].

As for `N#Cc1c(C(F)(F)F)cc(C2CC2)[nH]c1=O`, the cell number change was -26.7%. In addition, under setting [2], the half-maximal activity concentration (AC50) is 3.26 µM [falling, full curve, poor fit]. Besides, under setting [1], the AC50 is 1.84 µM [falling, partial curve, poor fit].

As for `CCC(=O)NNc1nc2c(C)cc(C)cc2s1`, the cell number change amounted to 36.4%. Moreover, the half-maximal activity concentration (AC50) under setting [1] was 20.6 µM [rising, single point].

As for `O=C(CNc1cccc([N+](=O)[O-])c1)NCCCc1ccccc1`, the cell number change came to 5.13%.

As to `[O-]C1=N/[N+](=C/c2ccc(Cl)c(Cl)c2)CC1`, the cell number change was -3.41%. Also, the AC50 under setting [1] was 0.58 µM [falling, single point].

Regarding `N#C/C(=C\c1cc([N+](=O)[O-])ccc1Cl)C(N)=O`, the cell number change is -17.5%.

Regarding `Nc1ccc(N2CCN(CCCCN3C(=O)C4CCCN4C3=O)CC2)cc1` (stereo not given), the cell number change is 2.19%. The AC50 under setting [2] was 0.517 µM [falling, single point].

As for `O=S1(=O)CCN2N=C(C3CC3)SC2=N1`, the cell number change was -13.2%. For the same compound, under setting [2], the concentration at half-maximal activity (AC50) was 6.51 µM [falling, single point]. Moreover, under setting [1], the AC50 was 1.03 µM [falling, full curve].

Take `O=c1c(=O)n(O)c2ccccc2n1O`: the cell number change is -3.94%.

Take `Cc1csc(NC(=O)CCN2C(=O)c3ccccc3S2(=O)=O)n1`: the cell number change is 14.8%.

For the compound `Cc1ccc(Cl)cc1N1CCN(C(c2cccnc2)c2nnnn2C2CCCCC2)CC1` (stereo not given), the cell number change was found to be 7.04%. The concentration at half-maximal activity (AC50) under setting [1] is 1.3 µM [rising, partial curve].

As for `CCCc1nc2ccccc2c(C(=O)OCC(=O)Nc2ccc(S(=O)(=O)N3CCOCC3)cc2)c1CC`, the cell number change came out at 16.6%. The AC50 under setting [1] was 3.66 µM [falling, single point].

`COC(=O)[C@]1(C)CCC[C@@]2(C)C3CC[C@]4(OC(C)=O)C[C@@]3(CCC21)CC4=NO` (stereo not given in full): the cell number change is -23.8%. In addition, the AC50 under setting [1] is 0.103 µM [falling, full curve].

Take `FC(F)(F)C1=CC(c2ccccc2)=NCCN1`: the cell number change is 8.49%.

As for `Cc1cc(C)cc(NC(=O)CSc2nc(=O)n(CCN3CCOCC3)c3c2CCCC3)c1`, the concentration at half-maximal activity (AC50) under setting [2] was 0.58 µM [falling, single point].

Regarding `Cc1cc(OCC(=O)NCCCN2CCCC2=O)c2c(C)c(C)c(=O)oc2c1`, the cell number change is 20.5%.

With `CCOC(=O)c1cnc(SC)nc1NCCOC`, the cell number change was -16.6%.

In the case of `CN1CCc2cc3c(c4c2[C@H]1[C@H](O)c1ccccc1-4)OCO3`, the cell number change came out at 22.7%. Besides, the AC50 under setting [1] is 6.51 µM [rising, partial curve].

As to `CC(C)c1ccc(/C=N/NC(=O)c2nnn(-c3nonc3N)c2CSC2=NCCS2)cc1`, the cell number change amounted to 5.85%.

Turning to `CCOc1ccc(NC(=O)CC2C(=O)N(CC)C(=S)N2NC(=O)c2ccncc2)cc1` (stereo not given), the cell number change was -5.81%.

Consider `O=S(=O)(c1ccc2c(c1)OCCO2)N1CCNCC1`, for which the cell number change was found to be 13.5%. In addition, the AC50 under setting [1] is 0.13 µM [rising, full curve, poor fit].

`O=C(CN1CCN(Cc2ccccc2)CC1)Nc1ccc(S(=O)(=O)N2CCOCC2)cc1`: the cell number change was -14.3%. For the same compound, the concentration at half-maximal activity (AC50) under setting [1] was 0.82 µM [falling, partial curve, poor fit].

Regarding `COCCCN(C(=S)Nc1cccc(Cl)c1)C(C)c1ccncc1` (stereo not given), the cell number change is -7.64%.

For the compound `CCN(CCCNC(=O)C1c2ccccc2C(=O)N(CCOC)C1c1ccc(F)cc1)Cc1ccccc1` (stereo not given), the cell number change is -10.9%. The half-maximal activity concentration (AC50) under setting [2] is 0.231 µM [falling, full curve, poor fit]. For the same compound, the AC50 under setting [1] is 0.58 µM [falling, full curve, poor fit].

With `CCCC(=O)N1c2ccccc2[C@@H](N(C(C)=O)c2ccccc2)C[C@H]1C`, the cell number change turned out to be 39.2%. Besides, the concentration at half-maximal activity (AC50) under setting [2] was 0.00461 µM [rising, full curve, poor fit].

Regarding `O=C(NC1CCCC1)c1cccc(S(=O)(=O)Nc2ccccc2F)c1`, the cell number change was -6.16%. For the same compound, the AC50 under setting [1] was 2.31 µM [rising, partial curve].

For the compound `COc1cc2c(=O)n(Cc3ccccc3)c(=O)n(CC(=O)NCc3ccco3)c2cc1OC`, the AC50 under setting [2] is 0.517 µM [rising, partial curve] and the concentration at half-maximal activity (AC50) under setting [1] is 0.461 µM [rising, partial curve, poor fit].

Take `Cc1ccc(N(Cc2cc(=O)[nH]c3ccccc23)C(=O)CCl)cc1`: the cell number change amounted to 5.79%. Besides, under setting [1], the AC50 is 20.6 µM [falling, single point].

As to `Cc1onc(-c2ccccc2)c1C(=O)NC(=S)NNC(=O)c1ccco1`, the cell number change was -50.3%. Also, the concentration at half-maximal activity (AC50) under setting [2] is 14.6 µM [falling, partial curve]. The AC50 under setting [1] was 14.6 µM [falling, partial curve].

On to `C[n+]1cc[nH]c1SCC(=O)c1ccc(Cl)cc1`, for which the AC50 under setting [2] is 0.092 µM [falling, full curve, poor fit] and the concentration at half-maximal activity (AC50) under setting [1] is 0.13 µM [falling, full curve, poor fit].

In the case of `O=C(COC(=O)c1cccnc1)Nc1cccc2ccccc12`, the cell number change turned out to be 13.2%. Also, the AC50 under setting [2] is 4.11 µM [rising, single point].

Turning to `COc1ccccc1NS(=O)(=O)c1cccc(C(=O)N/N=C/c2ccc(N3CCOCC3)cc2)c1`, the concentration at half-maximal activity (AC50) under setting [2] was 0.184 µM [falling, full curve].

In the case of `Cc1nc2ccccn2c1C(=O)NC1CCCCC1`, the cell number change is -11.5%. Moreover, the concentration at half-maximal activity (AC50) under setting [2] is 1.46 µM [falling, single point].

Take `CC1=CC(C)(C)Nc2ccccc21`: the cell number change is -46.5% and -30.1%. Also, under setting [2], the AC50 is 20.6 µM [falling, single point] and 82 nM [falling, full curve, poor fit]. For the same compound, the half-maximal activity concentration (AC50) under setting [1] was 29.1 µM [falling, single point] and 92 nM [falling, full curve, poor fit].

Turning to `COc1cc(/C=N/O)ccc1OCc1ccc(Cl)cc1`, the cell number change is -46.4%. Moreover, under setting [2], the AC50 was 2.31 µM [falling, partial curve, poor fit]. In addition, the half-maximal activity concentration (AC50) under setting [1] was 1.46 µM [falling, partial curve].

For `COc1ccc(C(C)=O)cc1COc1cccc2cccnc12`, the cell number change amounted to 8.76%.

As for `COc1ccc2c(c1)-c1c(ssc1=S)C(C)(C)N2C(=O)CSC1=NCCS1`, the cell number change was -75.5%. The half-maximal activity concentration (AC50) under setting [2] was 25.9 µM [falling, partial curve]. Under setting [1], the AC50 is 20.6 µM [falling, partial curve].

As to `C=CCN(CC=C)c1cnn(-c2nc3ccccc3[nH]2)c(=O)c1Cl`, the cell number change was 27.3%. The AC50 under setting [2] is 1.3 µM [rising, full curve, poor fit].

As for `CCOc1ccc(NC(=O)c2ccco2)c([N+](=O)[O-])c1`, the cell number change was 36.2%. Moreover, under setting [2], the AC50 is 0.651 µM [rising, single point]. The AC50 under setting [1] was 29.1 µM [rising, single point].

Take `CC(=O)Nc1ccc(N2CCCC2)cc1`: the cell number change turned out to be 21%. The half-maximal activity concentration (AC50) under setting [1] was 1.64 µM [falling, partial curve, poor fit].

On to `COC(=O)c1sccc1NS(=O)(=O)c1ccccc1`, for which the cell number change amounted to 14.7%. For the same compound, under setting [1], the concentration at half-maximal activity (AC50) is 9.2 µM [rising, partial curve, poor fit].

As to `COCCn1c(C23CC4CC(CC(C4)C2)C3)n[nH]c1=S`, the half-maximal activity concentration (AC50) under setting [1] was 0.58 µM [rising, single point].

Take `O=C(CN1C(=O)c2ccccc2C1=O)N1CCN(c2ccccn2)CC1`: the cell number change was 7.37%. Also, under setting [1], the half-maximal activity concentration (AC50) was 6.51 µM [falling, single point].

In the case of `CC(C)(C)C(=O)Nc1sc2c(c1C#N)CCC2`, the cell number change worked out at 1.23%. Under setting [2], the half-maximal activity concentration (AC50) was 0.103 µM [falling, full curve, poor fit]. The concentration at half-maximal activity (AC50) under setting [1] was 0.092 µM [falling, partial curve, poor fit].

`CCN1CCN(CCCNC(=O)c2ccc3c(Cl)c4c(nc3c2)CCCC4)CC1`: the cell number change amounted to 76.1%. Moreover, the AC50 under setting [2] is 29.1 µM [rising, single point].

Turning to `CSc1nnc2ccc(-c3cccs3)nn12`, the cell number change is 32.1%.

With `CC(NC(=O)Cc1ccccc1[N+](=O)[O-])c1ccccc1` (stereo not given), the cell number change was -5.58%. Also, the concentration at half-maximal activity (AC50) under setting [1] was 16.4 µM [falling, single point].

As for `Cc1cc(C(=O)Nc2cccc(/C=C/C(=O)O)c2)c(C)o1`, the cell number change was 5.31%.

In the case of `Cc1ccc(C(=O)O/N=C(\c2ccccc2)c2cccnc2)cc1`, the cell number change came to 171%. The half-maximal activity concentration (AC50) under setting [2] is 13 µM [rising, partial curve]. The half-maximal activity concentration (AC50) under setting [1] was 20.6 µM [rising, partial curve].

Regarding `O=S(=O)(Cc1ccc(Cl)cc1)N1CCCCCC1`, the cell number change turned out to be 7.04%. Under setting [1], the AC50 is 0.092 µM [rising, full curve, poor fit].

With `Cc1ccc(C(=O)N2CCN(c3ccccc3)CC2)cc1C`, the cell number change was determined as 3.24%. Also, the concentration at half-maximal activity (AC50) under setting [1] was 0.00651 µM [falling, full curve, poor fit].

Take `COc1cccc(/C=C2\SC(=O)N(CC(=O)NC3C=CS(=O)(=O)C3)C2=O)c1` (stereo not given): under setting [2], the half-maximal activity concentration (AC50) is 0.82 µM [rising, full curve, poor fit].

Consider `O=C(NCc1ccccc1)c1nncc(-c2ccccc2)n1`, for which the cell number change is -9.94%. For the same compound, the AC50 under setting [1] is 0.00731 µM [rising, full curve, poor fit].

Turning to `Cn1c(NC(=O)c2ccccc2)cc(=O)n(C)c1=O`, the cell number change amounted to 23.3%.

Consider `Cn1ncc([N+](=O)[O-])c1C(=O)Nc1ccc(-c2nc3ccccc3[nH]2)cc1`, for which the cell number change was 12.9%. For the same compound, the AC50 under setting [2] was 0.82 µM [rising, partial curve].

(Values after PubChem BioAssay AID2685 (National Center for Advancing Translational Sciences (NCATS), 2010).)
